Source: ChEMBL document CHEMBL1121430, “Bicyclic and tricyclic ergoline partial structures. Rigid 3-(2-aminoethyl)pyrroles and 3- and 4-(2-aminoethyl)pyrazoles as dopamine agonists” (1980)

How the values were obtained:
Rattus norvegicus [1] = assay: Tested for lowering of serum prolactin level in reserpinized rat after i.p. administration at dosage of 0.05 mg/kg; format: functional; conditions: route intraperitoneal
Rattus norvegicus [2] = assay: Tested for lowering of serum prolactin level in reserpinized rat after i.p. administration at dosage of 0.5 mg/kg; format: functional; conditions: route intraperitoneal

CCCN1CCC[C@@H]2Cc3n[nH]cc3CC21.Cl.Cl (some centres not stated)
Inhibition (Rattus norvegicus [1]): 12.3 ng/mL | Serum level (Rattus norvegicus [2]): 7.7 ng/mL
